Results are given in words; binding and its absence hold for the method and conditions named. Some binding calls cover weakened binding; strength is not graded here.
Tests used:
[1] = biological target: Streptococcus pneumoniae dihydrodipicolinate synthase (Streptococcus pneumoniae) (UniProt Q97R25); assay: dynamic light scattering; 59 µM Sp-DHDPS, 20°C, scattering angle 90 degrees; average hydrodynamic radius; both purified
[2] = biological target: Streptococcus pneumoniae dihydrodipicolinate synthase (Streptococcus pneumoniae) (UniProt Q97R25); assay: crystal structure; X-ray, 1.9 Å, space group P22(1)2(1), two monomers ('tight' dimer) in the asymmetric unit; the crystallographic two-fold axis generates the tetramer; both purified

- binding [1]: binds
- binding [2]: binds
B1: Streptococcus pneumoniae dihydrodipicolinate synthase (enzyme, UniProt Q97R25 1-311, looked up)
chain: MSYQDLKKCKIITAFITPFHEDGSINFDAIPALIEHLLAHHTDGILLAGTTAESPTLTHDEELELFAAVQKVVNGRVPLIAGVGTNDTRDSIEFVKEVAEFGGFAAGLAIVPYYNKPSQEGMYQHFKTIADASDLPIIIYNIPGRVVVELTPETMLRLADHPNIIGVKECTSLANMAYLIEHKPEEFLIYTGEDGDAFHAMNLGADGVISVASHTNGDEMHEMFTAIAESDMKKAAAIQRKFIPKVNALFSYPSPAPVKAILNYMGFEAGPTRLPLVPAPEEDAKRIIKVVVDGDYEATKATVTGVLRPDY
notes: Dihydrodipicolinate synthase (DHDPS, product of dapA) of Streptococcus pneumoniae; Homotetramer (dimer of 'tight' dimers) in solution and in the crystal; also called Sp-DHDPS; sp-DHDPS
